Results on four molecules are retold here after article PMC11994801.

The chains behind the UniProt entries cited, without tags or fusion partners.
UniProt Q14145: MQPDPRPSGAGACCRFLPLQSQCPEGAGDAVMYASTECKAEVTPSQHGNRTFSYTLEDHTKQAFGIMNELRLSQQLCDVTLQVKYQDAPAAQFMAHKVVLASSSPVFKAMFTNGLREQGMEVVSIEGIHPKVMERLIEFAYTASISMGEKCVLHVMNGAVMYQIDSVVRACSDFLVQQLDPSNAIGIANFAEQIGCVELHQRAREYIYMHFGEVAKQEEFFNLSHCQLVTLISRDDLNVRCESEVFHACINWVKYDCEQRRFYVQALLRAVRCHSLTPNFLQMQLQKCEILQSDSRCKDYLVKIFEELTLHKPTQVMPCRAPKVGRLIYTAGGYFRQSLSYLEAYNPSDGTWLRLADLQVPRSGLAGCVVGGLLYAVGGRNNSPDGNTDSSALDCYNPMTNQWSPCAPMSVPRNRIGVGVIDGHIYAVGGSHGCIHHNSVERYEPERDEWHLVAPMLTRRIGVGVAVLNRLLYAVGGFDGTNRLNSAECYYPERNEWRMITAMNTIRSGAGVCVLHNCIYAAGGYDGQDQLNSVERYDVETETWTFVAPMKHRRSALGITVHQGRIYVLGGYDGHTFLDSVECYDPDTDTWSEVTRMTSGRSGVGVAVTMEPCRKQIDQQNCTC
UniProt O94972: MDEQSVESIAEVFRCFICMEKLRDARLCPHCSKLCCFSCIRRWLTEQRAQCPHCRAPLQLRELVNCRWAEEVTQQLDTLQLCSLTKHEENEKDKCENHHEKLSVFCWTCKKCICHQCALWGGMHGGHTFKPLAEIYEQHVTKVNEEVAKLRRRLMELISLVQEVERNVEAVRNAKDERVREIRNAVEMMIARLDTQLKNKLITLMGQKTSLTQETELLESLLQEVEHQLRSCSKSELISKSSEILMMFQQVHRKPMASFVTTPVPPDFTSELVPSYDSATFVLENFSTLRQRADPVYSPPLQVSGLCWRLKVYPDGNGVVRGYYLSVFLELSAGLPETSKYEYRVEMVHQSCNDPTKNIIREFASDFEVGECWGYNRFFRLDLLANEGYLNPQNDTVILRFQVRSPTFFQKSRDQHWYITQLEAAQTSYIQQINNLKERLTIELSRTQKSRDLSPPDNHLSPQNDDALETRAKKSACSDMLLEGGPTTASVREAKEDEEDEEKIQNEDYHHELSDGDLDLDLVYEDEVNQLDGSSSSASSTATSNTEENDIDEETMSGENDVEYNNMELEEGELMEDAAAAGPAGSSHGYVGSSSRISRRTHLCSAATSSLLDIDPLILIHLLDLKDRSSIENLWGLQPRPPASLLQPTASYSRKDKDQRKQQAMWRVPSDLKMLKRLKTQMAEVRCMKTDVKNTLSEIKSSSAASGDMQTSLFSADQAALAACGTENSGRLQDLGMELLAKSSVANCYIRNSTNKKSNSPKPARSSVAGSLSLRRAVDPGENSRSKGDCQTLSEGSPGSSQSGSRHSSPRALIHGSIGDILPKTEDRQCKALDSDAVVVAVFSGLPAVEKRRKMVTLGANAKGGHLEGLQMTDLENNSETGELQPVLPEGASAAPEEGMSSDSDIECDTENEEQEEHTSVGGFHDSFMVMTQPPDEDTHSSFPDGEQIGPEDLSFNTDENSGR

For test [1], the target named is T1, Myc-TMEM160 (transmembrane protein 160) (UniProt Q9NX00).
T1 sequence: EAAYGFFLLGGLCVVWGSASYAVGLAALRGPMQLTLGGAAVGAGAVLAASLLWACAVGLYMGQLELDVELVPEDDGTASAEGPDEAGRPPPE
Put plainly: co-IP; exogenous co-IP from HEK-293T cells co-transfected with tagged plasmids; protein A/G Immunoprecipitation Kit; IP by tag antibodies (anti-Flag, anti-HA as indicated), detection by WB; in Fig. 5G with or without Myc-TMEM160 overexpression.

The target in test [2] is HA-KEAP1 (Kelch-like ECH-associated protein 1) (UniProt Q14145). The test is described as above.
The target of test [3] is T2, TMEM160, endogenous (human (endogenous in BGC-823 and HGC-27)) (UniProt Q9NX00).
T2 sequence: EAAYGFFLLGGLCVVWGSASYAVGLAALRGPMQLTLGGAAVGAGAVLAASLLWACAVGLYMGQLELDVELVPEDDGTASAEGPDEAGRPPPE
Put plainly: co-IP; endogenous co-IP; BGC-823 and HGC-27 lysates incubated with magnetic beads conjugated to anti-TMEM160, anti-KEAP1 or anti-TRIM37 polyclonal antibodies at 4°C for 48 h; WB.

The target in test [4] is KEAP1, endogenous (human (endogenous in BGC-823 and HGC-27)) (UniProt Q14145). The description is as above.
Another test deals with Flag-KEAP1 WT (UniProt Q14145). Put plainly: co-IP; exogenous co-IP from HEK-293T cells co-transfected with tagged plasmids; protein A/G Immunoprecipitation Kit; IP by tag antibodies (anti-Flag, anti-HA as indicated), detection by WB; in Fig. 5G with or without Myc-TMEM160 overexpression.
The target in test [5] is HA-KEAP1 (Kelch-like ECH-associated protein 1) (UniProt Q14145). The description is as above. This is another data set of the same source.
Test [6] concerns the target KEAP1, endogenous (human (endogenous in BGC-823 and HGC-27)) (UniProt Q14145). Put plainly: co-IP; endogenous co-IP; BGC-823 and HGC-27 lysates incubated with magnetic beads conjugated to anti-TMEM160, anti-KEAP1 or anti-TRIM37 polyclonal antibodies at 4°C for 48 h; WB. The source holds these as a separate data set.

Where two headings read alike, the source gives them in different places. No constants are given. Whether binding was seen depends on the method and setting. In cells and extracts the contact can be indirect. Some entries that bind do so weakly or less than the wild type. For some of these results: Sequences can lack the tags named with a protein.

Consider Flag-TRIM37 (from UniProt O94972 1-964), for which the binding result in test [1] and in test [2] was “binds” in each case. Consider “TRIM37, endogenous (from UniProt O94972 1-964)”, for which the binding result in test [3] and in test [4] was “binds” in each case.

B1: Myc-TMEM160 (transmembrane protein 160) (protein, UniProt Q9NX00 97-188)
chain: EAAYGFFLLGGLCVVWGSASYAVGLAALRGPMQLTLGGAAVGAGAVLAASLLWACAVGLYMGQLELDVELVPEDDGTASAEGPDEAGRPPPE
In the case of B1, the binding entry (with Flag-KEAP1 WT; in test [5]) was “binds” in each case.

B2: TMEM160, endogenous (protein, UniProt Q9NX00 97-188)
chain: EAAYGFFLLGGLCVVWGSASYAVGLAALRGPMQLTLGGAAVGAGAVLAASLLWACAVGLYMGQLELDVELVPEDDGTASAEGPDEAGRPPPE
B2: the binding entry in test [6] is “binds”.
